# PubChem BioAssay AID1224830 | NIAID | 2016
# Aim: 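Host factors that control LPS-induced TNF expression in human macrophages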 (primary screen)
# Cells: human THP-1 monocytic leukaemia cells, TNF dual-luciferase reporter clone, PMA-differentiated to macrophage-like cells
# Knock-down reagent: siRNA pool against human genes, 50 nM
# Duration: LPS for 4 h, given about 3 days after siRNA transfection
# Challenge: bacterial LPS (TLR4 ligand), 10 ng/ml
# Detection: 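Ratio of firefly to renilla light, scaled to the plate median and expressed as a robust z-score per replicate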
# Reading the numbers: TNF reporter robust z-score: higher = stronger TNF reporter response to LPS
# Hit rule: 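Each well counts as active if its z-score is over 2.8 or under -1.5; controls are left without a call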
# The whole screen tested about 18,000 reagents; this is a part drawn at random. Over the whole deposit, about 2,900 (16%) were called active. 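Calls are made per well; low scores hint the gene aids the LPS response, high scores that it dampens it.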 A number with no mark means an inactive call. Repeated entries: four replicate wells of each siRNA pool.
gene symbol,TNF reporter robust z-score
"COQ2 (coenzyme Q2, polyprenyltransferase)",-0.95
"COQ2 (coenzyme Q2, polyprenyltransferase)",-1.18
"COQ2 (coenzyme Q2, polyprenyltransferase)",-1
"COQ2 (coenzyme Q2, polyprenyltransferase)",-0.98
OPA3 (outer mitochondrial membrane lipid metabolism regulator OPA3),-0.84
OPA3 (outer mitochondrial membrane lipid metabolism regulator OPA3),-0.2
OPA3 (outer mitochondrial membrane lipid metabolism regulator OPA3),-0.66
OPA3 (outer mitochondrial membrane lipid metabolism regulator OPA3),-0.01
"PSMC5 (proteasome 26S subunit, ATPase 5)",-1.03
"PSMC5 (proteasome 26S subunit, ATPase 5)",-1.04
"PSMC5 (proteasome 26S subunit, ATPase 5)",-1.16
"PSMC5 (proteasome 26S subunit, ATPase 5)",-1.09
CA9 (carbonic anhydrase 9),0.14
CA9 (carbonic anhydrase 9),0.28
CA9 (carbonic anhydrase 9),-0.73
CA9 (carbonic anhydrase 9),-1.2
NKX3-1 (NK3 homeobox 1),-0.42
NKX3-1 (NK3 homeobox 1),0.51
NKX3-1 (NK3 homeobox 1),0.38
NKX3-1 (NK3 homeobox 1),0.67
"RAB34 (RAB34, member RAS oncogene family)",1.13
"RAB34 (RAB34, member RAS oncogene family)",1.02
"RAB34 (RAB34, member RAS oncogene family)",0.85
"RAB34 (RAB34, member RAS oncogene family)",1.51
DDN (dendrin),-0.72
DDN (dendrin),-0.41
DDN (dendrin),-0.09
DDN (dendrin),-0.45
RPL18 (ribosomal protein L18),-0.19
RPL18 (ribosomal protein L18),-0.26
RPL18 (ribosomal protein L18),-0.52
RPL18 (ribosomal protein L18),-0.22
COX8A (cytochrome c oxidase subunit 8A),0.02
COX8A (cytochrome c oxidase subunit 8A),1.59
COX8A (cytochrome c oxidase subunit 8A),0.12
COX8A (cytochrome c oxidase subunit 8A),0.18
GLTPD2 (glycolipid transfer protein domain containing 2),1.21
GLTPD2 (glycolipid transfer protein domain containing 2),1.34
GLTPD2 (glycolipid transfer protein domain containing 2),1.61
GLTPD2 (glycolipid transfer protein domain containing 2),0.65
LILRB2 (leukocyte immunoglobulin like receptor B2),1.07
LILRB2 (leukocyte immunoglobulin like receptor B2),0.38
LILRB2 (leukocyte immunoglobulin like receptor B2),1.48
LILRB2 (leukocyte immunoglobulin like receptor B2),1.19
CHST3 (carbohydrate sulfotransferase 3),3.31 (active)
CHST3 (carbohydrate sulfotransferase 3),2.51
CHST3 (carbohydrate sulfotransferase 3),2.63
CHST3 (carbohydrate sulfotransferase 3),3.11 (active)
ABHD18 (abhydrolase domain containing 18),-1.57 (active)
ABHD18 (abhydrolase domain containing 18),-0.6
ABHD18 (abhydrolase domain containing 18),-1.39
ABHD18 (abhydrolase domain containing 18),-0.26
CRISP1 (cysteine rich secretory protein 1),1.11
CRISP1 (cysteine rich secretory protein 1),-0.01
CRISP1 (cysteine rich secretory protein 1),1.25
CRISP1 (cysteine rich secretory protein 1),0.33
CHTOP (chromatin target of PRMT1),-1.54 (active)
CHTOP (chromatin target of PRMT1),-1.21
CHTOP (chromatin target of PRMT1),-1.11
CHTOP (chromatin target of PRMT1),-1.67 (active)
NKIRAS1 (NFKB inhibitor interacting Ras like 1),-0.39
NKIRAS1 (NFKB inhibitor interacting Ras like 1),-0.65
NKIRAS1 (NFKB inhibitor interacting Ras like 1),0.3
OR3A2 (olfactory receptor family 3 subfamily A member 2),-0.05
OR3A2 (olfactory receptor family 3 subfamily A member 2),0.49
OR3A2 (olfactory receptor family 3 subfamily A member 2),-0.83
OR3A2 (olfactory receptor family 3 subfamily A member 2),-0.35
BEX4 (brain expressed X-linked 4),1.1
BEX4 (brain expressed X-linked 4),0.44
BEX4 (brain expressed X-linked 4),0.63
BEX4 (brain expressed X-linked 4),-0.15
EOGT (EGF domain specific O-linked N-acetylglucosamine transferase),-0.66
EOGT (EGF domain specific O-linked N-acetylglucosamine transferase),-0.71
EOGT (EGF domain specific O-linked N-acetylglucosamine transferase),-0.27
EOGT (EGF domain specific O-linked N-acetylglucosamine transferase),-0.43

14 successive records from above, for reference:
gene symbol,TNF reporter robust z-score
CHST3 (carbohydrate sulfotransferase 3),3.11 (active)
ABHD18 (abhydrolase domain containing 18),-1.57 (active)
ABHD18 (abhydrolase domain containing 18),-0.6
ABHD18 (abhydrolase domain containing 18),-1.39
ABHD18 (abhydrolase domain containing 18),-0.26
CRISP1 (cysteine rich secretory protein 1),1.11
CRISP1 (cysteine rich secretory protein 1),-0.01
CRISP1 (cysteine rich secretory protein 1),1.25
CRISP1 (cysteine rich secretory protein 1),0.33
CHTOP (chromatin target of PRMT1),-1.54 (active)
CHTOP (chromatin target of PRMT1),-1.21
CHTOP (chromatin target of PRMT1),-1.11
CHTOP (chromatin target of PRMT1),-1.67 (active)
NKIRAS1 (NFKB inhibitor interacting Ras like 1),-0.39

Further reagents:
gene symbol,TNF reporter robust z-score
ZNF473 (zinc finger protein 473),-1.15
ZNF473 (zinc finger protein 473),-0.8
ZNF473 (zinc finger protein 473),-0.67
ZNF473 (zinc finger protein 473),-0.87
PENK (proenkephalin),-1.26
PENK (proenkephalin),-1.17
PENK (proenkephalin),-1.15
PENK (proenkephalin),-0.47
MRPL23 (mitochondrial ribosomal protein L23),-0.7
MRPL23 (mitochondrial ribosomal protein L23),-0.53
MRPL23 (mitochondrial ribosomal protein L23),-0.82
MRPL23 (mitochondrial ribosomal protein L23),-0.8
"HLF (HLF transcription factor, PAR bZIP family member)",0.77
"HLF (HLF transcription factor, PAR bZIP family member)",2.68
"HLF (HLF transcription factor, PAR bZIP family member)",2.52
"HLF (HLF transcription factor, PAR bZIP family member)",1.36
CETN3 (centrin 3),-1.55 (active)
CETN3 (centrin 3),-1.57 (active)
CETN3 (centrin 3),-1.64 (active)
CETN3 (centrin 3),-1.45
SURF2 (surfeit 2),-0.58
SURF2 (surfeit 2),-0.49
SURF2 (surfeit 2),-0.08
SURF2 (surfeit 2),-0.34
RAET1E (retinoic acid early transcript 1E),1.05
RAET1E (retinoic acid early transcript 1E),3.2 (active)
RAET1E (retinoic acid early transcript 1E),1.11
RAET1E (retinoic acid early transcript 1E),1.58
FXYD6 (FXYD domain containing ion transport regulator 6),0.41
FXYD6 (FXYD domain containing ion transport regulator 6),-0.85
FXYD6 (FXYD domain containing ion transport regulator 6),-0.15
FXYD6 (FXYD domain containing ion transport regulator 6),0.59
ITSN2 (intersectin 2),-1.45
ITSN2 (intersectin 2),-1.2
ITSN2 (intersectin 2),-1.46
ITSN2 (intersectin 2),-0.99
TMEM82 (transmembrane protein 82),1.19
TMEM82 (transmembrane protein 82),0.25
TMEM82 (transmembrane protein 82),0.8
TMEM82 (transmembrane protein 82),0.03
SRSF10 (serine and arginine rich splicing factor 10),1.65
SRSF10 (serine and arginine rich splicing factor 10),2.38
SRSF10 (serine and arginine rich splicing factor 10),2.02
SRSF10 (serine and arginine rich splicing factor 10),1.41
FKBPL (FKBP prolyl isomerase like),-0.02
FKBPL (FKBP prolyl isomerase like),0.14
FKBPL (FKBP prolyl isomerase like),-0.71
"NAT8B (N-acetyltransferase 8B (putative, gene/pseudogene))",-0.5
"NAT8B (N-acetyltransferase 8B (putative, gene/pseudogene))",-0.44
"NAT8B (N-acetyltransferase 8B (putative, gene/pseudogene))",-0.27
"NAT8B (N-acetyltransferase 8B (putative, gene/pseudogene))",0.18
KIF21A (kinesin family member 21A),-0.91
KIF21A (kinesin family member 21A),-1.13
KIF21A (kinesin family member 21A),0
KIF21A (kinesin family member 21A),0.32
PAFAH1B3,-1.87 (active)
PAFAH1B3,-1.46
PAFAH1B3,-0.77
PAFAH1B3,-0.72
ZBTB5 (zinc finger and BTB domain containing 5),-0.86
ZBTB5 (zinc finger and BTB domain containing 5),-0.11
ZBTB5 (zinc finger and BTB domain containing 5),-1.04
ZBTB5 (zinc finger and BTB domain containing 5),-1.03
ZSCAN5B (zinc finger and SCAN domain containing 5B),-0.13
ZSCAN5B (zinc finger and SCAN domain containing 5B),0.76
ZSCAN5B (zinc finger and SCAN domain containing 5B),-0.52
ZSCAN5B (zinc finger and SCAN domain containing 5B),-0.8
